The values that follow come from article PMC9166295.

Experiment [1] has as its target VIR3-FLAG in stably transformed Arabidopsis vir3-1 (vir3-1/pUBQ::VIR3-FLAG) (Arabidopsis). In words: co-IP; anti-FLAG M2 beads; proteins of enriched chloroplasts of 14-day-old stably transformed Arabidopsis vir3-1 lines in 1x PBS, 0.3% Triton X-100; immunoblots with tAPX and GAPB-specific antibodies. For orientation: In western blotting, separated proteins are transferred to a membrane and probed.

In experiment [2] the target is VIR3^H239Y-FLAG in stably transformed Arabidopsis vir3-1 (vir3-1/pUBQ::VIR3^H239Y-FLAG) (Arabidopsis). The experiment is described as above.

Results are given in words; binding and its absence hold for the method and conditions named. In cells and extracts the contact can be indirect. Binding can be weak; no strength is given.

B1: GAPB, endogenous in Arabidopsis seedlings (enzyme, UniProt P25857 81-447)
chain: KLKVAINGFGRIGRNFLRCWHGRKDSPLEVVVLNDSGGVKNASHLLKYDSMLGTFKAEVKIVDNETISVDGKLIKVVSNRDPLKLPWAELGIDIVIEGTGVFVDGPGAGKHIQAGASKVIITAPAKGADIPTYVMGVNEQDYGHDVANIISNASCTTNCLAPFAKVLDEEFGIVKGTMTTTHSYTGDQRLLDASHRDLRRARAAALNIVPTSTGAAKAVSLVLPQLKGKLNGIALRVPTPNVSVVDLVINVEKKGLTAEDVNEAFRKAANGPMKGILDVCDAPLVSVDFRCSDVSTTIDSSLTMVMGDDMVKVVAWYDNEWGYSQRVVDLAHLVASKWPGAEAVGSGDPLEDFCKTNPADEECKVYD
For B1, the binding entry in experiment [1] and in experiment [2] was “binds” throughout.

B2: tAPX, endogenous in Arabidopsis seedlings (enzyme, UniProt Q42593 79-426)
chain: AASDAAQLISAKEDIKVLLRTKFCHPILVRLGWHDAGTYNKNIEEWPLRGGANGSLRFEAELKHAANAGLLNALKLIQPLKDKYPNISYADLFQLASATAIEEAGGPDIPMKYGRVDVVAPEQCPEEGRLPDAGPPSPADHLRDVFYRMGLDDKEIVALSGAHTLGRARPDRSGWGKPETKYTKTGPGEAGGQSWTVKWLKFDNSYFKDIKEKRDDDLLVLPTDAALFEDPSFKNYAEKYAEDVAAFFKDYAEAHAKLSNLGAKFDPPEGIVIENVPEKFVAAKYSTGKKELSDSMKKKIRAEYEAIGGSPDKPLPTNYFLNIIIAIGVLVLLSTLFGGNNNSDFSGF
On to B2, for which the binding result in experiment [1] and in experiment [2] was “binds” in each case.
